According to PubChem BioAssay AID2685 (National Center for Advancing Translational Sciences (NCATS), 2010):
Some of the results follow. Shown are side measurements of this screen, not its main read-out; they come without a call. The list favours compounds with an active or inconclusive main result. Potencies come from curve fits of mixed quality, noted in brackets.

Assay: qHTS Assay for Lipid Storage Modulators in Drosophila S3 Cells;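 as to cell number change: cells counted by Cell Tracker Red CMTPX staining in the red channel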
Conditions: BODIPY lipid droplet fluorescence, 18-24 h; for cell number change: measured here: cell count max response, cells fed with added oleic acid
Summary of the method: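 Drosophila S3 cells got compounds at several concentrations plus oleic acid (400 uM solution). Laser-scanning cytometry with 488 nm excitation read lipid droplets at 500-530 nm and cells at 575-640 nm. Percent activity was relative to 20 uM Triacsin C.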

[1] = measured here: lipid fluorescence (Fed channel) AC50, cells fed with added oleic acid
[2] = measured here: cell number channel AC50, cells fed with added oleic acid

Structure (SMILES) | cell number change | AC50 [1] | AC50 [2]
Cc1nc(Cl)cc(N/N=C/c2ccccc2)n1 | 11% | 29.1 µM [rising, single point] | –
CCCNC(=O)CN(c1ccc(F)cc1)S(=O)(=O)c1ccc2c(c1)OCCO2 | 12.9% | 29.1 µM [falling, single point] | –
CC(C)C[C@H](NC(=O)N1CCCCCC1)C(=O)O | -17.8% | – | 6.51 µM [rising, single point]
COc1ccc(NC(C)C(=O)N/N=C/c2c(O)ccc3ccccc23)cc1 (stereo not given) | 4.96% | 20.6 µM [falling, single point] | –
CCC(=O)N(C)CCc1cc2c(c(OC)c1/C=N/NC(=O)c1ccc(Br)cc1)OCO2 | -0.803% | – | –
CCOc1ccc(-c2cn(CCC#N)cn2)cc1 | 78.4% | 0.146 µM [falling, full curve, poor fit] | 8.2 µM [rising, partial curve]
CC(=O)Nc1ccc(NC(=O)COC(=O)c2ccc(C)s2)cc1 | 7.71% | 0.00517 µM [falling, full curve, poor fit] | –
CCCCNCCOCCOc1ccc(C)cc1Br | -9.57% | 5.8 µM [rising, full curve] | –
CNc1ccc([N+](=O)[O-])cc1 | 1.24% | 0.146 µM [falling, full curve] | –
CCCCCCN1CC(=O)N2[C@@H](Cc3c([nH]c4ccccc34)C2(C)C)C1=O | -39.5% | 29.1 µM [falling, single point] | 25.9 µM [falling, single point]
CCCCOP(=O)(c1ccc(N(C)C)cc1)C(O)c1ccncc1 (stereo not given) | 46.2% | 29.1 µM [rising, single point] | 14.6 µM [rising, partial curve, poor fit]
Cn1ccc2cc(-c3ccc4ncnc(NCc5cccs5)c4c3)ccc21 | -14% | 32.6 µM [falling, single point] | –
CC(C)N1CCC2(CC1)Oc1ccc(Br)cc1C1CC(c3cccnc3)=NN12 (stereo not given) | -2.43% | 0.092 µM [rising, full curve, poor fit] | –
COc1ccccc1CNC(=O)Cn1c(=O)oc2cc(Cl)ccc21 | 23.8% | 6.51 µM [rising, single point] | –
CC1(CC(=O)N/N=C/c2cc([N+](=O)[O-])c(O)cc2O)OCCO1 | -37.1% | 0.00461 µM [falling, full curve, poor fit] | 0.13 µM [falling, full curve]
COc1ccc(S(=O)(=O)N2CCN(c3c(C)cccc3C)CC2)cc1OC | -24.5% | – | –
COCc1cc(C)nc2sc(C(=O)N3CCN(c4ccccc4)CC3)c(N)c12 | 31.6% | 0.461 µM [rising, single point] | 0.58 µM [rising, single point]
CCOC(=O)CON1C(=O)C(=O)N(OCC(=O)OCC)[C@H]2CCCC[C@H]21 | -27.2% | 29.1 µM [falling, single point] | –
O=c1ccc2[n+]([O-])c3ccc(O)cc3oc-2c1 | -65.6% | 3.66 µM [falling, full curve] | 4.61 µM [falling, full curve]
Cc1ccc(N(CC(=O)NC2CCCC2)C(=O)CCC(=O)Nc2nccs2)c(C)c1 | -6.94% | – | –
CCN(CCCNC(=O)c1nn(C)c2c1CS(=O)(=O)c1ccccc1-2)Cc1ccccc1 | 31.6% | 25.9 µM [rising, single point] | 29.1 µM [rising, single point]
COc1ccc(C2CCCN2C(=S)Nc2ccccc2C)cc1OC (stereo not given) | -2.15% | 0.651 µM [falling, single point] | 0.651 µM [falling, single point]
COc1ccccc1OCC(=O)Nc1cccc(-c2nc3ccccc3o2)c1 | -59.1% | 1.03 µM [rising, partial curve] | 29.1 µM [falling, single point]
COc1ccc(-c2ccc(=O)n(CC(=O)NC3CCc4ccccc43)n2)cc1OC (stereo not given) | 3.73% | 0.92 µM [rising, full curve, poor fit] | –
Cc1cc(C)nc(NS(=O)(=O)c2ccc(N/C=C\C(=O)c3cccs3)cc2)n1 | 139% | 29.1 µM [rising, single point] | 29.1 µM [rising, single point]
O=C(O)C1C2CCC(C2)C1C(=O)NCCc1cccc(Cl)c1 (stereo not given) | 1.38% | – | –
CCOc1ccccc1CNC(=O)C1CCC(=O)N1C(C)C (stereo not given) | -14.2% | 1.46 µM [falling, full curve, poor fit] | –

Of the compounds above, these have a nitro group on carbon:
Structure (SMILES) | cell number change | AC50 [1] | AC50 [2]
CNc1ccc([N+](=O)[O-])cc1 | 1.24% | 0.146 µM [falling, full curve] | –
CC1(CC(=O)N/N=C/c2cc([N+](=O)[O-])c(O)cc2O)OCCO1 | -37.1% | 0.00461 µM [falling, full curve, poor fit] | 0.13 µM [falling, full curve]

Looked up above.
CCOc1ccc(-c2cn(CCC#N)cn2)cc1 | AC50 [2]: 8.2 µM [rising, partial curve]
O=C(O)C1C2CCC(C2)C1C(=O)NCCc1cccc(Cl)c1 (stereo not given) | cell number change: 1.38%

Further compounds

Structure (SMILES) | cell number change | AC50 [1] | AC50 [2]
Cc1c(NS(=O)(=O)c2ccc(NC(=O)CCC(=O)O)cc2)c(=O)n(-c2ccccc2)n1C | -25.1% | 0.461 µM [falling, full curve] | –
CCO/N=C(/C)c1c(O)cc(C(C)(C)C)n(-c2ccccc2)c1=O | -12.5% | 29.1 µM [falling, single point] | 0.517 µM [rising, single point]
CNC(=O)c1ccccc1NC(=O)c1cccc(S(=O)(=O)N2CCC(C)CC2)c1 | -13.7% | 0.0411 µM [rising, full curve, poor fit] | –
COc1ccc(-n2c(N)c(C(=O)NCc3ccco3)c3nc4ccccc4nc32)cc1OC | -41.2% | 18.4 µM [falling, single point] | 29.1 µM [falling, single point]
C/C(=N/Nc1ccccc1[N+](=O)[O-])c1ccc(C)c([N+](=O)[O-])c1 | -36.1% | 29.1 µM [falling, single point] | 18.4 µM [falling, partial curve, poor fit]
O=C(O)CNS(=O)(=O)c1ccc2c(c1)CCCC2 | -0.683% | – | –
O=C(CSc1nncs1)Nc1nccs1 | 21% | 32.6 µM [falling, single point] | –
CCOc1ccc(NC(=S)N(CCOC)C2CCN(C(C)C)CC2)cc1 | -14.9% | 0.116 µM [falling, full curve, poor fit] | 6.51 µM [falling, single point]
CCCCSCc1[nH]c(=O)[nH]c1C(=O)CCCCC(=O)OCC | 39.2% | – | 5.8 µM [rising, partial curve]
COc1cc(Cl)cc(/C=C/c2ccc3ccccc3n2)c1OC(C)=O | 54.7% | 4.61 µM [rising, partial curve] | 1.3 µM [rising, full curve]
C/C(=N\O)C(=O)NCCCNCCCN(C)C | -36.3% | 16.4 µM [falling, single point] | 0.366 µM [falling, full curve, poor fit]
CC(C)(C)n1ncc2c(=O)n(Cc3ccc(Cl)cc3)cnc21 | – | 0.103 µM [rising, full curve, poor fit] | –
CC(NC(=O)CN1C(=O)NC(Cc2ccccc2)(Cc2ccccc2)C1=O)C12CC3CC(CC(C3)C1)C2 (stereo not given) | 5.94% | 1.3 µM [falling, full curve, poor fit] | –
COc1ccc(C2CC(c3c(-c4ccccc4)c4cc(Cl)ccc4[nH]c3=O)=NN2S(C)(=O)=O)cc1OC (stereo not given) | -81.9% | 5.8 µM [rising, single point] | 1.84 µM [rising, partial curve]
COc1ccc2oc(C(=O)OCC(=O)NC3CCCCC3)c(C)c2c1 | 11.4% | – | –
COc1ccc(S(=O)(=O)NCC2CCC(C(=O)NCCC(C)C)CC2)cc1 (stereo not given) | 25.9% | 20.6 µM [rising, single point] | –
COc1cc(/C=N\NC(=O)c2ccccc2F)ccc1Oc1ccc([N+](=O)[O-])cn1 | 16.4% | 6.51 µM [rising, single point] | –
COC(=O)C1=C(C)NC(=S)NC1c1ccc(-c2cccc(Cl)c2)o1 (stereo not given) | 19% | 29.1 µM [falling, single point] | 0.00411 µM [rising, partial curve, poor fit]
CC(Oc1ccc(F)cc1)C(=O)Nc1cc(Cl)ccc1-n1cncn1 (stereo not given) | 34% | 18.4 µM [rising, single point] | 5.8 µM [rising, partial curve]
CC1(C)CC(=O)C2=C(C1)N(c1ccccc1C#N)C(N)=C(C#N)C2c1cccs1 (stereo not given) | 18.8% | 2.91 µM [rising, full curve] | 0.651 µM [rising, partial curve, poor fit]
Cc1cccc(NC(=O)CSc2ncnc3nc[nH]c23)c1C | – | 25.9 µM [rising, partial curve, poor fit] | –
CCCC(O)(CCN(C)C)c1ccc(OC)cc1 (stereo not given) | -30.9% | 6.51 µM [falling, partial curve] | 0.0164 µM [falling, full curve, poor fit]
Cc1ccc(CN2CCC(C(=O)Nc3cccc(-c4cccc(F)c4)c3)CC2)o1 | – | 1.16 µM [rising, full curve] | –
Cc1ccc(S(=O)(=O)NC(C)CCc2ccccc2)cc1C(N)=O (stereo not given) | – | 1.16 µM [falling, partial curve, poor fit] | –
CCOC(=O)CCC(NC(=O)c1ccc(NCN2C(=O)CCC2=O)cc1)C(=O)OCC (stereo not given) | -17.5% | 0.58 µM [falling, single point] | –
Cc1cc(NS(=O)(=O)c2ccc(NC(=O)c3cc4c(=O)n5ccccc5nc4s3)cc2)nc(C)n1 | -23.3% | 0.326 µM [falling, partial curve, poor fit] | –
COc1cccc(/C=N/NC(=O)c2cc(-c3cccn3C)n[nH]2)c1O | -30.2% | 14.6 µM [falling, partial curve] | 4.11 µM [falling, partial curve]
